Data published in patent US20150044244A1, “COMBINED FACILITATOR, ANTIGEN AND DNA VACCINE FOR PREVENTING AND TREATING AUTOIMMUNE DISEASES” (BEIJING ADVANCCINE BIOTECHNOLOGY CO. LTD., priority 2011, published 2015).
Results are given in words; binding and its absence hold for the method and conditions named. Some entries that bind do so weakly or less than the wild type. Where a sequence is shown, tags or fusion partners need not be part of it.

Target: T1, MHC-II (I-Ad), as assessed in the tetramer staining-based epitope competition assay (mouse) (UniProt P04228+P01921)
T1 sequence (MHC II alpha, looked up): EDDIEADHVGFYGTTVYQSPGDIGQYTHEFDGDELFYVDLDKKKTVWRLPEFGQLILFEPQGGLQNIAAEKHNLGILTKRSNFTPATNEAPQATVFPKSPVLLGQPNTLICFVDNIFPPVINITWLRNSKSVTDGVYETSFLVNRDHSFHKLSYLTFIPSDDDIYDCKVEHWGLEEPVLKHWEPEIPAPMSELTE
T1 sequence (MHC II beta, looked up): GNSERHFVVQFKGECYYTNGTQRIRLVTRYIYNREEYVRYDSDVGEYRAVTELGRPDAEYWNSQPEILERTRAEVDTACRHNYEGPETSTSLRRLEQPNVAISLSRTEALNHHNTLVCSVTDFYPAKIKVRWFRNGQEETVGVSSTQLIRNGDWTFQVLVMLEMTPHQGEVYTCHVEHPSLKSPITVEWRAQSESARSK
Test: tetramer staining-based epitope competition assay, flow cytometry on DO11.10 T cells; competitor: PE-conjugated OVA323-339-loaded I-Ad tetramer

B1: OVA323-339, dominant epitope of hen ovalbumin for I-Ad (peptide)
peptide: ISQAVHAAHAEINEAGR
With B1 the binding was “binds”.
